# According to PubChem BioAssay AID540256 (National Center for Advancing Translational Sciences (NCATS), 2011):
# Among all 300,000 compounds or so, about 3,700 (1.2%) were called active. This list was built around the results that the source calls inconclusive (neither active nor inactive); the mix of calls is not that of the screen. Calls come from the whole dose curve; tested in HEK293 cells. Potencies beside an inconclusive call are fits to weak or partial responses and may not hold up.
# Assay: qHTS for Inhibitors of binding or entry into cells for Lassa Virus; note: nearly all actives have a fitted effect of over 50% in size
# Conditions: Lassa virus pseudotype entry inhibition, cell reporter; activity change, negative = inhibition: at 37.9 µM (top of the series) unless noted
# % is set by controls: 0 for no effect and ±100 for the full control effect; potency is the fitted concentration of half-maximal effect.
Structure (SMILES),Potency,"activity change, negative = inhibition"
O=C(O)c1ccc(COc2ccc3c4c(c(=O)oc3c2)CCC4)o1,"inconclusive: 29.1 µM [inhibitor, single point]",–
Nc1ncnc2nc(SCCOc3ccc(Cl)cc3)[nH]c12,"inconclusive: 23.1 µM [inhibitor, single point]",–
O=C(/C=C/c1ccco1)Nc1ccc(Oc2ccccc2)cc1,"inconclusive: 7.08 µM [inhibitor, partial curve, poor fit]",–
O=C(NC1CCCC1)c1ccc(CSc2nc3cccnc3n2Cc2cccc(F)c2)cc1,–,inactive: -25.6% [at 46.1 µM]
O=C1C2CCC(C(O)C2)N1Cc1ccccc1 (configuration not stated),–,inactive: -10.7%
Cc1ccc(N(CCC(=O)O)S(=O)(=O)c2ccccc2)cc1,–,inactive: 0.675%
CCOC(=O)CC(=O)CSc1nc2c(cc1C#N)CCC2,–,inactive: 5.73%
O=C(CSc1nnc(-c2ccccc2Br)n1-c1ccccc1)c1ccc(F)cc1,"inconclusive: 35.5 µM [inhibitor, single point]",–
CCCn1nnc(NC(=O)c2ccc([N+](=O)[O-])cc2Cl)n1,–,inactive: 7.41% [at 46.1 µM]
COc1cc(OC)c(C(=O)NCCCN2CCOCC2)cc1OC,"inconclusive: 6.31 µM [inhibitor, single point]",–
CCN(CC)CCN(C(=O)c1ccc(S(=O)(=O)N2CCOCC2)cc1)c1nc2cc3c(cc2s1)OCCO3,–,inactive: 1.98%
CN(C)S(=O)(=O)c1ccc(C(=O)NCC2CC2(Cl)Cl)cc1 (configuration not stated),"inconclusive: 17.8 µM [inhibitor, single point]",–
Cc1cc(-c2ccc(S(=O)(=O)Nc3cccc(C)c3C)s2)on1,"inconclusive: 2 µM [inhibitor, partial curve, poor fit]",–
Nc1nc(SCC(=O)Nc2cc(-c3ccccc3)nn2-c2ccccc2)n[nH]1,"inconclusive: 0.82 µM [inhibitor, full curve, poor fit]",–
CCOC(=O)c1c(C)[nH]c(C)c1S(=O)(=O)N1CCC(C(=O)NCc2ccc(F)cc2)CC1,–,inactive: -12.6% [at 46.1 µM]
CCn1c(O)c(N=NC(=O)c2cccc(S(=O)(=O)N3CCCCC3)c2)c2ccccc21,"inconclusive: 12.6 µM [inhibitor, partial curve, poor fit]",–
CC(C)(C)NC(=O)C1Cc2ccccc2CN1 (configuration not stated),"inconclusive: 1.41 µM [inhibitor, partial curve, poor fit]",–
O=C(/C=C/c1ccc(F)cc1)NCc1ccco1,"inconclusive: 9.2 µM [inhibitor, partial curve, poor fit]",–
CCCCSCCCNC(=O)C1CCN(Cc2nc(-c3ccc(CC)cc3)oc2C)CC1,"inconclusive: 11.2 µM [inhibitor, partial curve]",–
COc1ccc(-c2nn3c(=O)cc(CN4CCN(C(=O)Nc5cc(C)ccc5C)CC4)nc3s2)cc1,"inconclusive: 35.5 µM [activator, single point]",–
COc1ccc(N(Cc2ccc(N(C)C)cc2)C(=O)c2ccc(S(C)(=O)=O)cc2)cc1,"inconclusive: 11.2 µM [inhibitor, partial curve, poor fit]",–
O=C(CCl)Nc1ccc(-c2ccccc2)cc1,active: 10.3 µM,–
O=C(Nc1ccc([N+](=O)[O-])c(NC(=O)C2CCCO2)c1)C1CCCO1 (configuration not stated),–,inactive: -3.88%
COC(=O)[C@H](C)[C@H]1C[C@]1(C)[C@H](NC(=O)OCc1ccccc1)c1ccccc1,"inconclusive: 25.9 µM [inhibitor, single point]",–

Structure (SMILES),Potency,"activity change, negative = inhibition"
O=C(OCc1ccccc1F)c1cc([N+](=O)[O-])ccc1N1CCOCC1,–,inactive: -4.62%
CC(C)Cn1c(-c2ccncc2)n[nH]c1=S,–,inactive: -22.6%
COc1ccc(NC(=S)Nc2cc(C(F)(F)F)ccc2F)cc1,"inconclusive: 0.708 µM [inhibitor, single point]",–
O=c1c2ccccc2cnn1Cc1ccc(Br)cc1F,"inconclusive: 22.4 µM [inhibitor, single point]",–
CCCC=Cc1ccc(CN2C(C(C)C)C(=O)N(Cc3cn(CC4CCCCC4)nn3)CCS2(=O)=O)cc1 (configuration not stated),active: 25 µM,–
CCOc1ccc2oc(C(=O)N3CCCN(C)CC3)c(C)c2c1,"inconclusive: 3.55 µM [activator, single point]",–
CCC(=O)c1ccc(OCC(=O)OCC(=O)NCC2CCCO2)cc1 (configuration not stated),–,inactive: 26.8% [at 46.1 µM]
O=C(Nc1ccccn1)c1ccc(Br)s1,"inconclusive: 1 µM [activator, single point]",–
COc1ccc(NS(=O)(=O)c2cccc(C(=O)OCC(=O)c3c(N)n(C)c(=O)n(C)c3=O)c2)cc1,"inconclusive: 1.12 µM [inhibitor, full curve, poor fit]",–
COCC(C)n1c(COc2ccccc2F)nnc1SCC(=O)c1c(N)n(C)c(=O)n(C)c1=O (configuration not stated),–,inactive: 5.28%
Cc1cccc(C(=O)N2CCNC(=O)C2CC(=O)Nc2ccc(F)cc2)c1 (configuration not stated),–,inactive: -4.05% [at 46.1 µM]
CC(C)(C)n1ncc2c(=O)n(CC(=O)OCc3ccccc3)cnc21,"inconclusive: 35.5 µM [inhibitor, single point]",–
COc1cc2ncn(-c3cc(OC(C)c4ccccc4Cl)c(C(N)=O)s3)c2cc1OC (configuration not stated),active: 2.5 µM,–
COc1cc2c(cc1Nc1nc(Nc3ccsc3C(N)=O)c3cc[nH]c3n1)N(C(=O)CN(C)C)CCC2(C)C,active: 0.499 µM,–
Cc1ccc(N(Cc2ccccc2)C(=O)c2ccc(F)cc2)cc1,"inconclusive: 35.5 µM [inhibitor, single point]",–
COc1ccc2nc(NC(=O)C3CCCN(S(=O)(=O)c4cccs4)C3)sc2c1 (configuration not stated),"inconclusive: 12.6 µM [inhibitor, partial curve, poor fit]",–
CCOC(=O)COc1c(Br)cc(/C=C2\SC(=O)N(CC(=O)N3CCCC3)C2=O)cc1OC,–,inactive: -25.4%
COc1ccc(C(=O)c2sc(NC(C)C)nc2N)cc1OC,–,inactive: 9.48%
Cc1ccc(CN(C)C(=O)CCc2c[nH]c3ccccc23)o1,"inconclusive: 22.4 µM [inhibitor, single point]",–
O=C(c1ccc(-c2ccccc2)c(F)c1)C1CCCN(CCO)C1 (configuration not stated),–,inactive: -19.6%
CCc1ccc(OCC(=O)Nc2ccc(S(=O)(=O)Nc3onc(C)c3C)cc2)cc1,–,inactive: 1.67% [at 46.1 µM]
CC(C)NC(=O)NC(=O)COC(=O)c1ccccc1Oc1ccccc1,"inconclusive: 12.6 µM [inhibitor, partial curve, poor fit]",–
COc1cc(OC)cc(C(=O)NC(=S)NCc2ccco2)c1,"inconclusive: 20.6 µM [inhibitor, single point]",–
O=C(c1cc([N+](=O)[O-])ccc1N1CCOCC1)N1CCCCC1,–,inactive: -0.228%

Structure (SMILES),Potency,"activity change, negative = inhibition"
CCOC(=O)C1CCN(C(=O)CSc2c3c(nc4ccccc24)CCC3)CC1,–,inactive: 15.6%
COc1ccc2c(c1)C(C)CC(C)(C)N2C(=O)CSc1nc2ccccc2s1 (configuration not stated),"inconclusive: 35.5 µM [inhibitor, single point]",–
Nc1cc(C(=O)O)c(Oc2ccc(Cl)cc2Cl)cc1C(=O)O,"inconclusive: 11.2 µM [activator, partial curve, poor fit]",–
CC(=O)c1cccc(N(CC(=O)NC2CCCC2)C(=O)CNC(=O)c2cccs2)c1,"inconclusive: 6.31 µM [inhibitor, single point]",–
CC(=O)N1CCCC1c1nc2ccccc2n1Cc1c(F)cccc1Cl (configuration not stated),–,inactive: 3.54% [at 46.1 µM]
COc1ccc(N(CC(=O)NC2CC3CCC2C3)S(=O)(=O)c2ccccc2)cc1OC (configuration not stated),active: 8.91 µM,–
Cc1cccc(-n2ncc3c(N4CCOCC4)ncnc32)c1,active: 1.64 µM,–
CN1CCN(C(=S)Nc2ccc(Oc3ccccc3)cc2)CC1,–,inactive: -8.9% [at 46.1 µM]
CC(C)(C)n1nnnc1C(c1cc2cc3c(cc2[nH]c1=O)OCO3)N1CCN(c2ccccc2)CC1 (configuration not stated),"inconclusive: 0.092 µM [inhibitor, full curve, poor fit]",–
O=C1CC(SCc2nc3ccccc3[nH]2)C(=O)N1c1ccc(F)cc1 (configuration not stated),–,inactive: 15.1%
O=C(O)C1(c2ccccc2)CCN(S(=O)(=O)c2cccs2)CC1,"inconclusive: 0.891 µM [inhibitor, single point]",–
Cc1ccc(S(=O)Cc2ccc(C(=O)NCc3ccc(OC(C)C)cc3)o2)cc1 (configuration not stated),"inconclusive: 6.31 µM [inhibitor, single point]",–
CCn1nc(C)c(NC(=O)CCCSc2nc(-c3ccco3)cc(C(F)(F)F)n2)c1C,"inconclusive: 20 µM [inhibitor, single point]",–
O=C1CCCN1CCCNC(=S)Nc1ccc(Nc2ccccc2)cc1,"inconclusive: 28.2 µM [inhibitor, single point]",–
COc1ccc2nc(NC(=O)CSc3nc(C)cc(C)n3)sc2c1,"inconclusive: 29.1 µM [inhibitor, single point]",–
O=C1[C@@H]2C(Cc3ccc(O)cc3)NC3(C(=O)Nc4ccc(F)cc43)[C@@H]2C(=O)N1c1ccccc1 (some centres not stated),"inconclusive: 3.66 µM [inhibitor, full curve]",–
CC(C)CC(=O)Nc1ccc(N2CCN(C(=O)c3cccs3)CC2)cc1,–,inactive: -11.9%
CCNC(=O)c1c(NC(=O)c2cc(-c3cc(C)cc(C)c3O)n[nH]2)sc2c1CCCC2,–,inactive: 16.4%
COc1ccc(-n2c(-c3ccccc3F)nc3c(cnn3-c3ccc(C)cc3)c2=O)cc1,"inconclusive: 35.5 µM [inhibitor, single point]",–
Cc1ccc(/C(=N\O)c2oc3c(C)c4oc(=O)cc(C)c4cc3c2C)cc1,active: 0.366 µM,–
COc1cc(OC)c(NC(=O)c2sc3nc4n(c(=O)c3c2C)CCCC4)cc1Cl,–,inactive: 7.97% [at 46.1 µM]
Cc1ccc2[nH]c3c(N4CCOCC4)ncnc3c2c1,–,inactive: 7.24%
CCN(CC)S(=O)(=O)c1ccc2nc(NC(=O)c3cccs3)sc2c1,–,inactive: 18.3%
Cc1cc(C)cc(N(C(=O)c2csnn2)C(C(=O)NC2CCCCC2)c2ccncc2)c1 (configuration not stated),"inconclusive: 3.16 µM [inhibitor, single point]",–

# Reformatted: results already given.
Structure (SMILES)	Potency	activity change, negative = inhibition
O=C(O)C1(c2ccccc2)CCN(S(=O)(=O)c2cccs2)CC1	inconclusive: 0.891 µM [inhibitor, single point]	–
Cc1ccc(S(=O)Cc2ccc(C(=O)NCc3ccc(OC(C)C)cc3)o2)cc1 (configuration not stated)	inconclusive: 6.31 µM [inhibitor, single point]	–
CCn1nc(C)c(NC(=O)CCCSc2nc(-c3ccco3)cc(C(F)(F)F)n2)c1C	inconclusive: 20 µM [inhibitor, single point]	–
O=C1CCCN1CCCNC(=S)Nc1ccc(Nc2ccccc2)cc1	inconclusive: 28.2 µM [inhibitor, single point]	–
